Results: the supplement of paper PMC12067093, “Discovery and optimisation of a covalent ligand for TRIM25 and its application to targeted protein ubiquitination” (Chemical Science, 2025)
Some of the results follow.

Compound: CC1Cc2ccccc2N1C(=O)C1CCCN(C1)C(=O)CCl (mixture of isomers) [TRIM25 ligand 11 (diastereomer mixture)]
Test: probe-labelled cysteine peptide fold change vs DMSO (competition) (log2 fold change); higher = less target engagement (more negative = stronger competition)
Conditions: THP-1, incubation time: 4 h
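Further: competitive chemoproteomic profiling in live THP-1 cells with an iodoacetamide desthiobiotin (IA-DTB) probe, comparing probe-labelled peptide intensities in compound-treated cells against DMSO-treated controls.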

| Target | probe-labelled cysteine peptide fold change (10 µM) | probe-labelled cysteine peptide fold change (50 µM) |
| --- | --- | --- |
| ITPR1_Q14643_2224_TMEQIVFPVPSICEFLTK (UniProt Q14643) | 0.18 | 0.0354 |
| JMY_Q8N9B5_721_GAASPVLQEDHCDSLPSVLQVEEK (UniProt Q8N9B5) | -0.19 | -0.041 |
| KCNAB2_Q13303_248_IGVGAMTWSPLACGIVSGK (UniProt Q13303) | 0.0997 | -0.115 |
| ITPR3_Q14573_2455_ACDTLLMCIVTVMNHGLR (UniProt Q14573) | 0.0426 | 0.264 |
| JADE1_Q6IE81_258+261_CLLCPK (UniProt Q6IE81) | -0.0455 | 0.148 |
| KDM5C_P41229_267_EGPECPPTVVVK (UniProt P41229) | 0.0279 | -0.0699 |
| KHSRP_Q92945_436_CGLVIGR (UniProt Q92945) | -0.0539 | 0.0432 |
| KHDC4_Q7Z7F0_280_GSGCIEPASGR (UniProt Q7Z7F0) | -0.00375 | 0.0482 |
| KDM3B_Q7LBC6_569_QSLESLSSGLCK (UniProt Q7LBC6) | -0.082 | -0.241 |
| KHDC4_Q7Z7F0_116_SKDDLVVAEVEINDVPLTCR (UniProt Q7Z7F0) | -0.0549 | -0.242 |
| JTB_O76095_85_ITCSSSK (UniProt O76095) | -0.0396 | -0.183 |
| KAT2A_Q92830_815_EYNPPDSEYCR (UniProt Q92830) | -0.124 | -0.152 |
| KATNB1_Q9BVA0_579_YESYVQTGCTSLK (UniProt Q9BVA0) | -0.0536 | 0.151 |
| ITPR1_Q14643_2542_EHTCETLLMCIVTVLSHGLR (UniProt Q14643) | 0.0738 | 0.107 |
| KIAA0100_Q14667_1595_GAETEGCVIVSAAK (UniProt Q14667) | -0.158 | -0.147 |
| ITPR2_Q14571_1415_VVTHDDCIPEVK (UniProt Q14571) | 0.0273 | -0.0219 |
| ITGB7_P26010_428_GQCNHVR (UniProt P26010) | 0.13 | 0.199 |
| KDM2B_Q8NHM5_665_QCIAPVLPHTAVCLVCGEAGKEDTVEEEEGK (UniProt Q8NHM5) | -0.162 | -0.101 |
| KHNYN_O15037_221_SSALLGAQCQGVR (UniProt O15037) | -0.0601 | -0.394 |
| KDM5C_P41229_707_EAFELLPDDERQCIK (UniProt P41229) | 0.0217 | 0.014 |
| KBTBD11_O94819_257_DAAYCFMSDHYLEVLR (UniProt O94819) | -0.00414 | -0.135 |
| IVD_P26440_254+261_GSNTCELIFEDCK (UniProt P26440) | 0.0605 | 0.0743 |
| KARS_Q15046_427_KILDDICVAK (UniProt Q15046) | -0.413 | -0.48 |

| Target | probe-labelled cysteine peptide fold change (10 µM) | probe-labelled cysteine peptide fold change (50 µM) |
| --- | --- | --- |
| KBTBD11_O94819_485_RDEWQECPCSSSR (UniProt O94819) | -0.0629 | 0.00476 |
| KIAA0930_Q6ICG6_119_LDYMVTCAVCTR (UniProt Q6ICG6) | -0.00726 | 0.186 |
| KEAP1_Q14145_77_LSQQLCDVTLQVK (UniProt Q14145) | -0.0186 | 0.206 |
| KANSL3_Q9P2N6_103_SVMNECER (UniProt Q9P2N6) | -0.0366 | 0.0848 |
| ITGB3BP_Q13352_127_ELENLIGISCASHFLK (UniProt Q13352) | 0.151 | 0.187 |
| JMJD1C_Q15652_1721+1722_QTGESFLQDDSCCEIGPNLQK (UniProt Q15652) | 0.0717 | 0.0885 |
| KARS_Q15046_209_KGELSIIPYEITLLSPCLHMLPHLHFGLK (UniProt Q15046) | -0.00824 | -0.0518 |
| KIAA2013_Q8IYS2_185_DCVLLQEDFLAHR (UniProt Q8IYS2) | -0.0533 | 0.177 |
| ITPK1_Q13572_391_LGCNAGVSPSFQQHCVASLATK (UniProt Q13572) | 0.128 | -0.358 |
| KDM4C_Q9H3R0_14_MEVAEVESPLNPSCK (UniProt Q9H3R0) | 0.302 | 0.223 |
| KEAP1_Q14145_226_QEEFFNLSHCQLVTLISR (UniProt Q14145) | 0.401 | 0.233 |
| KDM1A_O60341_623_CDAVLCTLPLGVLK (UniProt O60341) | 0.0788 | 0.195 |
| KCTD18_Q6PI47_234_VPHELIECWTLEERPLLGSLR (UniProt Q6PI47) | 0.152 | -0.0111 |
| IVNS1ABP_Q9Y6Y0_482_NCDVFDPVTK (UniProt Q9Y6Y0) | 0.137 | 0.166 |
| KBTBD11_O94819_329_GDAAVYCFHAAAGEWR (UniProt O94819) | 0.247 | 0.242 |
| JAK2_O60674_961_LLQYTSQICK (UniProt O60674) | 0.134 | 0.0718 |
| JUND_P17535_336_VLSHVNSGCQLLPQHQVPAY (UniProt P17535) | 0.0837 | 0.179 |
| KAT7_O95251_474_NSFLNYNVSCILTMPQYMR (UniProt O95251) | 0.151 | 0.188 |
| KAT7_O95251_418_IYCQNLCLLAK (UniProt O95251) | 0.19 | 0.226 |
| IVD_P26440_355_ACDEGHCTAK (UniProt P26440) | -0.0206 | 0.133 |
| KCTD12_Q96CX2_50_CTVVSVPDSLLWR (UniProt Q96CX2) | 0.163 | -0.187 |
| KDM4A_O75164_844+847_TAGCCVQCSHGR (UniProt O75164) | 0.00224 | 0.211 |
| ITPR1_Q14643_1439_IAYINFLNHCYVDTEVEMK (UniProt Q14643) | 0.113 | 0.125 |

Two consecutive entries from above, quoted:

| Target | probe-labelled cysteine peptide fold change (10 µM) | probe-labelled cysteine peptide fold change (50 µM) |
| --- | --- | --- |
| KBTBD11_O94819_329_GDAAVYCFHAAAGEWR (UniProt O94819) | 0.247 | 0.242 |
| JAK2_O60674_961_LLQYTSQICK (UniProt O60674) | 0.134 | 0.0718 |
